In US10857167B2, “Use of oligosaccharide compositions to enhance weight gain” (Children's Hospital Medical Center, priority 2015, dated 2020):
This continues a long series; more values of the same kind are listed elsewhere.

Test system: distal small bowel gene expression
Assay: RNA sequencing / transcriptional analysis of small bowel 56 days after ICR (2′-FL signature response)
Assay type: in vivo, mouse
Excerpt: Luminal small bowel contents were expressed into AllProtect Tissue Reagent (Qiagen Inc, CA). Bacterial DNA was extracted using the AllPrep DNA/RNA Mini Kit (Qiagen Inc, CA), according to kit instructions and prior to sequencing (described below). Small bowel tissue samples for RNA were placed into RNA Later (Life Technologies, NY). RNA extraction was accomplished following Qiagen RNeasy Plus Kit instruction (Qiagen Inc, CA). All nucleic acid samples were then stored at -80 Celsius until sequenced (described below). Transcriptional analysis was carried out on resected and harvested small bowel samples obtained from operated mice taken to 8 weeks. Murine RNA sequencing libraries were prepared from approximately 1.5 μg RNA using the TruSeq RNA Sample Preparation Kit (Illumina, Calif.) and sequenced using the HiSeq 2000 Sequencing System (Illumina, Calif.) with single-end 50 bp reads. Following removal of primers and barcodes, sequences were aligned to the mm10 genome using reference annotations from UCSC (Rosenbloom et al. (2015) Nucleic acids research 43: […]-681) (n=36,186 entities). Aligned reads were quantified and used to compute reads per kilobase per million mapped reads (RPKM); raw counts were then normalized using the DESeq algorithm and each harvested sample was baselined to its own resected sample. A filter was applied to the data, requiring at least three reads in all samples of at least one of the four experimental conditions (n=14,489 entities). The data discussed in this publication have been deposited in NCBI's Gene Expression Omnibus and are accessible through NCBI Gene Expression Omnibus (GEO) Series accession number GSE72590. Edgar et al. (2002) Nucleic acids research 30: 207-210. In order to characterize the impact of 2'-FL supplementation while accounting for the effect of ileoecal resection, a t-test was applied between resected and harvested samples within control and experimental animals. Significance was set at a p-value of ≤0.05 and a fold change of 3, which generated 2,576 differentially regulated entities across two comparisons. Gene set unions and intersections of the control and experimental gene sets were identified through Venn diagrams. From the master list, the gene list specific to animals supplemented with 2'-FL were removed in order to identify genes differentially regulated only by ICR (n=546 entities); this gene set characterizes the adaptive response. Further, the 2'-FL response (n=2,030 entities) was identified by removing the adaptive response signature described above from the master list, leaving only genes regulated by 2'-FL supplementation after ICR which were not found in the non-supplemented adaptive response. Heatmaps were generated using hierarchical clustering with the Pearson's Centered distance metric and the average linkage rule; both entities and samples were clustered. All genomic analyses described above were performed in Strand NGS (Strand Life Sciences, CA). Gene list functional enrichment was initially discovered using ToppFun, a member of the ToppGene Suite. Chen et al. (2009) Nucleic acids research 37: […]-311. No statistical correction was selected. Gene lists were further analyzed using ClueGO, a plugin for Cytoscape designed to decipher functionally grouped gene ontology and pathway annotation networks. Bindea et al. (2009) Bioinformatics 25: 1091-1093. At the time of data analysis, the annotation files were updated from sources to Jan. 1, 2015. “GO Term Fusion” was enabled to manage ontologic term redundancy and network specificity was set to medium. Results were restricted to pathways with p≤0.05 using Benjamini-Hochberg correction and Kappa scoring was set to 0.4. Biocyc annotations were assigned a rectangle, gene ontology biologic processes were assigned an ellipse, and […] annotations were assigned a diamond shape. No meaning was assigned to size or color. […]

With `C[C@@H]1O[C@@H](O[C@H]2[C@H](O[C@H]3[C@H](O)[C@@H](O)C(O)O[C@@H]3CO)O[C@H](CO)[C@H](O)[C@@H]2O)[C@@H](O)[C@H](O)[C@@H]1O` (stereo partly shown) [2′-FL, 2′-fucosyllactose] the “Fold Change (Pre- to Post-op)” value (gene Tmem201) was −3.629, the “Fold Change (Pre- to Post-op)” value (gene Tmem231) was −7.662 and the “Fold Change (Pre- to Post-op)” value (gene Tmod2) was −6.959. The “Fold Change (Pre- to Post-op)” value (gene Tnfrsf19) was −3.766, the “Fold Change (Pre- to Post-op)” value (gene Tnfrsf22) was −4.648 and the “Fold Change (Pre- to Post-op)” value (gene Tnfrsf26) was −4.56. For the same compound, the “Fold Change (Pre- to Post-op)” value (gene Tnks) was −3.089, the “Fold Change (Pre- to Post-op)” value (gene Tnrc6b) was −6.379 and the “Fold Change (Pre- to Post-op)” value (gene Tnrc6c) was −4.634. The “Fold Change (Pre- to Post-op)” value (gene Tnrc18) was −7.712, the “Fold Change (Pre- to Post-op)” value (gene Tns1) was −6.858 and the “Fold Change (Pre- to Post-op)” value (gene Tns3) was −6.014. For the same compound, the “Fold Change (Pre- to Post-op)” value (gene Tpp1) was −3.05, the “Fold Change (Pre- to Post-op)” value (gene Trabd2b) was −3.697 and the “Fold Change (Pre- to Post-op)” value (gene Traf3) was −3.02. The “Fold Change (Pre- to Post-op)” value (gene Tram2) was −3.411, the “Fold Change (Pre- to Post-op)” value (gene Trf) was −5.128 and the “Fold Change (Pre- to Post-op)” value (gene Trim44) was −5.532. For the same compound, the “Fold Change (Pre- to Post-op)” value (gene Trio) was −4.393, the “Fold Change (Pre- to Post-op)” value (gene Trip11) was −4.536 and the “Fold Change (Pre- to Post-op)” value (gene Trpc4) was −3.068. The “Fold Change (Pre- to Post-op)” value (gene Trpm2) was −4.564, the “Fold Change (Pre- to Post-op)” value (gene Trpm6) was −6.685 and the “Fold Change (Pre- to Post-op)” value (gene Trps1) was −3.575. The “Fold Change (Pre- to Post-op)” value (gene Trrap) was −3.461, the “Fold Change (Pre- to Post-op)” value (gene Tshz1) was −3.979 and the “Fold Change (Pre- to Post-op)” value (gene Tshz2) was −4.651. For the same compound, the “Fold Change (Pre- to Post-op)” value (gene Tspan18) was −4.858, the “Fold Change (Pre- to Post-op)” value (gene Ttll5) was −3.121 and the “Fold Change (Pre- to Post-op)” value (gene Ttyh3) was −6.263. The “Fold Change (Pre- to Post-op)” value (gene Tub) was −3.359, the “Fold Change (Pre- to Post-op)” value (gene Tubb4a) was −7.968 and the “Fold Change (Pre- to Post-op)” value (gene Tusc5) was −7.014. For the same compound, the “Fold Change (Pre- to Post-op)” value (gene Uaca) was −4.543, the “Fold Change (Pre- to Post-op)” value (gene Ubap2) was −8.098 and the “Fold Change (Pre- to Post-op)” value (gene Ubap2l) was −3.895. For the same compound, the “Fold Change (Pre- to Post-op)” value (gene Ube2o) was −3.104, the “Fold Change (Pre- to Post-op)” value (gene Ubr4) was −5.118 and the “Fold Change (Pre- to Post-op)” value (gene Uhrf1bp1) was −3.775. The “Fold Change (Pre- to Post-op)” value (gene Unc5a) was −9.201, the “Fold Change (Pre- to Post-op)” value (gene Unc45b) was −5.787 and the “Fold Change (Pre- to Post-op)” value (gene Usp11) was −3.121. For the same compound, the “Fold Change (Pre- to Post-op)” value (gene Usp36) was −3.12, the “Fold Change (Pre- to Post-op)” value (gene Usp43) was −3.058 and the “Fold Change (Pre- to Post-op)” value (gene Usp48) was −3.111. For the same compound, the “Fold Change (Pre- to Post-op)” value (gene Ust) was −5.289, the “Fold Change (Pre- to Post-op)” value (gene Vcl) was −3.025 and the “Fold Change (Pre- to Post-op)” value (gene Vldlr) was −3.708. The “Fold Change (Pre- to Post-op)” value (gene Vps13c) was −9.132, the “Fold Change (Pre- to Post-op)” value (gene Vps13d) was −4.344 and the “Fold Change (Pre- to Post-op)” value (gene Vwa5b2) was −4.585. For the same compound, the “Fold Change (Pre- to Post-op)” value (gene Vwf) was −5.511, the “Fold Change (Pre- to Post-op)” value (gene Wasf2) was −5.725 and the “Fold Change (Pre- to Post-op)” value (gene Wdfy3) was −3.629. The “Fold Change (Pre- to Post-op)” value (gene Wdr19) was −6.358, the “Fold Change (Pre- to Post-op)” value (gene Wdr81) was −3.261 and the “Fold Change (Pre- to Post-op)” value (gene Wfs1) was −3.458. For the same compound, the “Fold Change (Pre- to Post-op)” value (gene Whrn) was −6.862, the “Fold Change (Pre- to Post-op)” value (gene Wipf2) was −3.465 and the “Fold Change (Pre- to Post-op)” value (gene Wiz) was −4.998. The “Fold Change (Pre- to Post-op)” value (gene Wnk2) was −7.591, the “Fold Change (Pre- to Post-op)” value (gene Wnk4) was −4.178 and the “Fold Change (Pre- to Post-op)” value (gene Wnt2b) was −4.049. The “Fold Change (Pre- to Post-op)” value (gene Wscd1) was −3.538, the “Fold Change (Pre- to Post-op)” value (gene Wwc2) was −3.601 and the “Fold Change (Pre- to Post-op)” value (gene Xpnpep2) was −5.854. The “Fold Change (Pre- to Post-op)” value (gene Xpo4) was −3.823, the “Fold Change (Pre- to Post-op)” value (gene Xpo5) was −3.483 and the “Fold Change (Pre- to Post-op)” value (gene Xpo6) was −3.587. For the same compound, the “Fold Change (Pre- to Post-op)” value (gene Xrn1) was −3.581, the “Fold Change (Pre- to Post-op)” value (gene Xylb) was −3.192 and the “Fold Change (Pre- to Post-op)” value (gene Xylt1) was −4.613. For the same compound, the “Fold Change (Pre- to Post-op)” value (gene Ylpm1) was −3.027, the “Fold Change (Pre- to Post-op)” value (gene Zan) was −4.025 and the “Fold Change (Pre- to Post-op)” value (gene Zbed3) was −3.297. For the same compound, the “Fold Change (Pre- to Post-op)” value (gene Zbtb4) was −3.273, the “Fold Change (Pre- to Post-op)” value (gene Zbtb7a) was −4.116 and the “Fold Change (Pre- to Post-op)” value (gene Zbtb12) was −6.781. The “Fold Change (Pre- to Post-op)” value (gene Zbtb16) was −5.056, the “Fold Change (Pre- to Post-op)” value (gene Zbtb34) was −13.15 and the “Fold Change (Pre- to Post-op)” value (gene Zbtb38) was −4.98. The “Fold Change (Pre- to Post-op)” value (gene Zbtb39) was −5.896, the “Fold Change (Pre- to Post-op)” value (gene Zc3h3) was −5.66 and the “Fold Change (Pre- to Post-op)” value (gene Zc3h13) was −3.523. The “Fold Change (Pre- to Post-op)” value (gene Zcchc2) was −4.607, the “Fold Change (Pre- to Post-op)” value (gene Zcchc3) was −4.568 and the “Fold Change (Pre- to Post-op)” value (gene Zcchc14) was −3.022. For the same compound, the “Fold Change (Pre- to Post-op)” value (gene Zdhhc23) was −7.668, the “Fold Change (Pre- to Post-op)” value (gene Zfand2b) was 3.034 and the “Fold Change (Pre- to Post-op)” value (gene Zfp39) was −3.935. The “Fold Change (Pre- to Post-op)” value (gene Zfp78) was −4.208, the “Fold Change (Pre- to Post-op)” value (gene Zfp142) was −4.378 and the “Fold Change (Pre- to Post-op)” value (gene Zfp316) was −6.6049. The “Fold Change (Pre- to Post-op)” value (gene Zfp319) was −4.835, the “Fold Change (Pre- to Post-op)” value (gene Zfp362) was −4.867 and the “Fold Change (Pre- to Post-op)” value (gene Zfp366) was −5.36. The “Fold Change (Pre- to Post-op)” value (gene Zfp369) was −4.375, the “Fold Change (Pre- to Post-op)” value (gene Zfp385a) was −4.214 and the “Fold Change (Pre- to Post-op)” value (gene Zfp395) was −7.634. For the same compound, the “Fold Change (Pre- to Post-op)” value (gene Zfp398) was −3.277, the “Fold Change (Pre- to Post-op)” value (gene Zfp423) was −6.103 and the “Fold Change (Pre- to Post-op)” value (gene Zfp462) was −4.644. For the same compound, the “Fold Change (Pre- to Post-op)” value (gene Zfp516) was −4.953, the “Fold Change (Pre- to Post-op)” value (gene Zfp526) was −3.97 and the “Fold Change (Pre- to Post-op)” value (gene Zfp532) was −4.928. For the same compound, the “Fold Change (Pre- to Post-op)” value (gene Zfp553) was −3.258, the “Fold Change (Pre- to Post-op)” value (gene Zfp574) was −4.871 and the “Fold Change (Pre- to Post-op)” value (gene Zfp592) was −3.655. For the same compound, the “Fold Change (Pre- to Post-op)” value (gene Zfp628) was −3.704, the “Fold Change (Pre- to Post-op)” value (gene Zfp629) was −3.832 and the “Fold Change (Pre- to Post-op)” value (gene Zfp647) was 3.041. For the same compound, the “Fold Change (Pre- to Post-op)” value (gene Zfp703) was −4.487, the “Fold Change (Pre- to Post-op)” value (gene Zfp704) was −3.446 and the “Fold Change (Pre- to Post-op)” value (gene Zfp871) was −3.045. For the same compound, the “Fold Change (Pre- to Post-op)” value (gene Zfyve26) was −3.656, the “Fold Change (Pre- to Post-op)” value (gene Zkscan8) was −3.104 and the “Fold Change (Pre- to Post-op)” value (gene Zkscan17) was −3.061. For the same compound, the “Fold Change (Pre- to Post-op)” value (gene Zmiz1) was −6.799, the “Fold Change (Pre- to Post-op)” value (gene Zmiz2) was −4.971 and the “Fold Change (Pre- to Post-op)” value (gene Znfx1) was −3.12. The “Fold Change (Pre- to Post-op)” value (gene zfp777) was −3.801.
